Most values lie at the floor of the assay. Slopes are relative: functional sequences can read slightly below zero.
tested on: Saccharomyces cerevisiae PS128 hsf1 delta, HSF1(1-493) fusion; assay: growth estimate (transactivation domain function in HSF1 fusion, heat-shock survival) (a.u. (slope of normalised read count over time)); higher = stronger growth at 37°C, i.e. more transactivation activity; details: library: random library
Method: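 Random 60-nt DNA library encoding peptides of up to 20 aa, fused to the C-terminus of yeast HSF1 residues 1-493 (C-terminal TAD deleted) and expressed from the native HSF1 promoter on a CEN plasmid in hsf1-deleted S. cerevisiae PS128. Cells were selected at 37°C on -trp 5-FOA plates for 0, 2, 4, 6 and 8 days and amplicons were sequenced. Growth estimate is the slope of a robust linear fit of total-sum-normalised read counts (normalised to the first time point) over time, using at least 2 replicates. Sequences are classed functional (TAD activity) above a threshold of -0.13, set from stop-codon control sequences.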

Substance	growth estimate
ISAYDRDGR	< -0.25
EQVLDALRVSAPASLIGITP	< -0.25
DLFNSARLSPG	< -0.25
VSPHYLATPS	< -0.25
VLRHLE	< -0.25
VSSLSGNGDIA	< -0.25
VRIWADQTSRSGFMGHR	< -0.25
SYK	< -0.25
FQPGSRVDGPVVPENRSTAV	< -0.25
TSVSVRSRF	< -0.25
SNL	< -0.25
PTLSVCKVPSQIPTCPASLV	< -0.25
GEGPGRESLPREVVFAPLIA	< -0.25
SKYVRQFWNDSSCSDANAAY	-0.229
DCSVPVTYCESRVAKRTRVA	< -0.25
WTRSRGDQRAPKIRWHRTLG	< -0.25
LFS	< -0.25
PRIGSPRHTNVRRSERSDAR	< -0.25
VGYIAANGVNMVVGYVIRSH	< -0.25
GQHGRIEIASLPFPYIQKRP	< -0.25
SEVVQARGTVAQL	< -0.25
MRGYW	< -0.25
LGFVSVG	< -0.25
GYIRLDRVGFSRRARHVVSY	< -0.25

Substance	growth estimate
KPRFPIDGAKVVDGNPRHPE	< -0.25
SIMAQGH	< -0.25
PPRIPIVPVPA	< -0.25
FPVLLGTGLSYPSCHS	< -0.25
VPRRGRYRPRIVTGPSADVF	< -0.25
LIEGVRGQLAMR	< -0.25
VGVDDEGLAVLHRFRYSYNS	< -0.25
VHLLLPVGSKLKEWTEDSSV	< -0.25
LRSDPWTVSHQGCD	< -0.25
VRVLNGLGAANNETITGAGS	< -0.25
AQSYLYPYGREG	-0.246
ATGAMVAKRP	< -0.25
PGPPPSSACDHRPV	< -0.25
GRNGRHS	< -0.25
KSLA	< -0.25
VTRPTTTLLTEIVLDPARWN	< -0.25
FEPSSGA	< -0.25
FASSPGHALAEYRP	< -0.25
CLGGNGRI	< -0.25
SDSAARCQNMTLSWRPSGSA	< -0.25
VGLNLINDVSESLKTCQEAV	< -0.25
LMCPLAETSPAARRGNRTPA	< -0.25
NPQVCNKCSRLSMRNAVKTD	< -0.25
WKMLRKLGSLRCINTSDAIH	< -0.25

Substance	growth estimate
EHGEDQESGIHNT	< -0.25
GGIRETFVGSARGDIPRRPS	< -0.25
VCEPSGDANWLNGAHGFGS	0.936
PFPIVFRCCCLTMRHLHFWQ	-0.207
LYTPGP	< -0.25
LIYFEGAHVKL	< -0.25
VWTPKVLTHSLRGTGSPLAE	< -0.25
LGSGQVCRSKGGQWSGADSF	< -0.25
VSMHRLCLTRGRD	< -0.25
IRATGGLVCSSGVTPDMLST	< -0.25
LWGNRVGRPAQHREGLGIGG	< -0.25
IRERSLCELRAAYGASRVIV	< -0.25
VVHRGILRTNG	< -0.25
LLGYLRGPDKDVCSIVGHKH	< -0.25
VACLGTGTLRAQAFCYRTYA	< -0.25
FKREERVS	< -0.25
ILTSCPMALGKCSRGNNGGA	< -0.25
CKSTCSRADLAGHTYLSLTT	< -0.25
SKDVDEPNKRTWYGRKSPVV	< -0.25
WNAGRAIIDVTYACYFLSAP	< -0.25
HQLIHALV	< -0.25
GQGGLYAQSLNHGLYRLSGS	< -0.25
HTY	< -0.25
AKNAACGAHVNGMGIGDTLG	< -0.25

Some of the entries so far, as labelled records.
PRIGSPRHTNVRRSERSDAR
  growth estimate = < -0.25
GQHGRIEIASLPFPYIQKRP
  growth estimate = < -0.25

(list continues)

Substance	growth estimate
LFRMFDDAMDQGDTLNVTHR	-0.156
HSGGRK	< -0.25
YQDTHGRAVSIPVYLQYGQR	< -0.25
GWGVADSNPGNRGPCPTIWI	< -0.25
SRTIVGVLPVPEV	< -0.25
LQGEVL	< -0.25
LYLKTLFTENAHSNGRLPRP	< -0.25
VPRTDYGPPVVQFTVLFKAA	< -0.25
FRERCLGLVQSSLWIVKYTD	< -0.25
LNCSMGV	< -0.25
RNCVVG	< -0.25
APTFREGPVGGDFGR	< -0.25
QRSDYLTRRVRYPATPGKAN	< -0.25
AGRGCLGLRRNICVFTAVRL	< -0.25
FPAASRPGMFD	< -0.25
VGSGNSGSGEGQDAEGRAVS	< -0.25
SGCLRGEVS	< -0.25
SRASQLSYAGDRLVRGA	< -0.25
RTVYWRPVRGRQDSWDRFLR	< -0.25
EADNRHETRHRSARFGPDAV	< -0.25
SIHHTKYITALIARALR	< -0.25
PPGHGRSDTNVREQIDERRR	< -0.25
LDCWVRRDNLLIRPWVNRFS	< -0.25
SRRWALHRPKQFVCYQLALL	< -0.25

Substance	growth estimate
TEVEGEVQISGQKPQESTTL	< -0.25
RNRR	< -0.25
PRWAFCVDRLMSVLEFVAAI	< -0.25
ANRFES	< -0.25
IAGRPLGGMSEAWHLINKPI	-0.229
SPRLEEIRSRVTVWSSGLSP	< -0.25
ELLYRESDGDYKGG	< -0.25
LRNK	< -0.25
PPREHRKDIRLPGDLY	< -0.25
HWVSMGS	< -0.25
SKDPSASRQVDKRRVPPMLE	< -0.25
AANPYRREAQRVHKLHSPLA	< -0.25
TKGAAGRYCSLICEIGSPTR	< -0.25
ILAMDAYEASVCTVRPLQSF	-0.219
ARSA	-0.233
TENPGDGGLVCATSPPALIG	< -0.25
IPCEV	-0.244
LGTSRFERIRRSGTRRPPWT	< -0.25
PSS	< -0.25
ELRGSMY	< -0.25
IHKVCRTSRVEDLKPVKDGT	< -0.25
RANTGVKADSVWATVNEIGN	-0.196
CLPEHRQFLRYSID	< -0.25
SVTEISVMGFSCKFRLYRP	< -0.25

Copied from the list.
Entry for HTY under growth estimate: < -0.25
Entry for WTRSRGDQRAPKIRWHRTLG under growth estimate: < -0.25
Entry for LRNK under growth estimate: < -0.25

Next entries follow.

Substance	growth estimate
IPASVEN	< -0.25
ETYCGQAHRGYYDWKNPVAV	< -0.25
VAERELV	< -0.25
LYVRMRRVLTGNTQARN	< -0.25
CTTRMF	< -0.25
SHDPPKL	< -0.25
LLSQDLKTY	-0.243
QILPWP	< -0.25
QRPCTFTISASRVSIPGEGW	< -0.25
DTAS	< -0.25
ANYHVTMNGMGAARRIRPVS	< -0.25
AHRLAFGVHDGGPVECALEV	< -0.25
QITIRYLTGGTPVC	< -0.25
TRYNPYQARPPAGLAVASHL	< -0.25
VRPSDGSCQCFSRSQGIFPV	< -0.25
MFS	< -0.25
GADGCADRHQGHALQQS	-0.243
VLRLGETLSNANWSGSHRTC	< -0.25
TDGAYARELSLVFGCFRRSE	< -0.25
GFESAWVLGWNPMWFSSNAS	-0.246
YYMAQCEPTGLISS	< -0.25
CLTI	< -0.25
TTSITPASRITYPAAVCHCV	< -0.25

From the supplement of paper PMC5949888
